Values quoted from earlier work, collected in US20240139101A1, “ADVANCED ORAL FILM FORMULATIONS” (INTELGENX CORP., priority 2022, published 2024).
Some results were stated once for a whole list of compounds, not compound by compound.

Conditions: significant hepatic first-pass metabolism

## CCCCCc1cc(O)c2c(c1)OC(C)(C)[C@@H]1CCC(C)=C[C@@H]21 [THC, delta-9-tetrahydrocannabinol]
  bioavailability: 2-8%
